Experimental data from publication PMC5624289.
These are yes or no findings as the source states them, for the method shown. Binding calls can cover weak binding; strength is not graded here. For some of these results: In cells and extracts the contact can be indirect. For some of these results: Tags and fused reporters may be left off the sequences shown.

What was measured:
[1] = target: OsFIGNL1 (OsFidgetin-like 1), yeast two-hybrid bait (rice (Oryza sativa)); assay: two-hybrid; OsFIGNL1 as bait (BD), partners as prey (AD); S. cerevisiae Y2HGold; test plates lacking Leu, Trp, His and Ade, 30°C, 4 days
[2] = target: OsFIGNL1, BiFC fusion (pSPYCE-OsFIGNL1) (rice (Oryza sativa)); assay: split reporter; BiFC: pSPYNE (YN) fusions of the partners with pSPYCE (YC)-OsFIGNL1, 35S promoter, Agrobacterium GV3101, Nicotiana benthamiana leaf cells; signal in the nucleus

Row | binding [1] | binding [2] | Binder
1 | binds |  | DMC1A, yeast two-hybrid prey (protein, UniProt Q7GBF8 1-344) MAPSKQYSEGGQLQLMDAERIEEEEECFESIDKLISQGINSGDVKKLQDAGIYTCNGLMMHTKKSLTGIKGLSEAKVDKICEAAEKLLSQGFITGSDLLIKRKSVVRITTGSQALDKLLGGGIETLCITEAFGEFRSGKTQLAHTLCVSAQLPIHMHGGNGKVAYIDTEGTFRPERIVPIAERFGMDANAVLDNIIYARAYTYEHQYNLLLGLAAKMAEEPFRLLIVDSVIALFRVDFSGRGELAERQQKLAQMLSRLTKIAEEFNVAVYITNQVIADPGGGMFITDLKKPAGGHVLAHAATIRLMLRKGKGEQRVCKIFDAPNLPEGEAVFQVTSGGIMDAKD
2 |  | binds | DMC1A, BiFC fusion (pSPYNE-DMC1A) (protein, UniProt Q7GBF8 1-344) MAPSKQYSEGGQLQLMDAERIEEEEECFESIDKLISQGINSGDVKKLQDAGIYTCNGLMMHTKKSLTGIKGLSEAKVDKICEAAEKLLSQGFITGSDLLIKRKSVVRITTGSQALDKLLGGGIETLCITEAFGEFRSGKTQLAHTLCVSAQLPIHMHGGNGKVAYIDTEGTFRPERIVPIAERFGMDANAVLDNIIYARAYTYEHQYNLLLGLAAKMAEEPFRLLIVDSVIALFRVDFSGRGELAERQQKLAQMLSRLTKIAEEFNVAVYITNQVIADPGGGMFITDLKKPAGGHVLAHAATIRLMLRKGKGEQRVCKIFDAPNLPEGEAVFQVTSGGIMDAKD
3 |  | binds | DMC1B, BiFC fusion (pSPYNE-DMC1B) (protein, UniProt Q7GBF7 1-344) MAPSKQYDEGGQLQLMDAERIEEEEECFESIDKLISQGINSGDVKKLQDAGIYTCNGLMMHTKKSLTGIKGLSEAKVDKICEAAEKLLSQGFMTGSDLLIKRKSVVRITTGSQALDELLGGGIETLCITEAFGEFRSGKTQLAHTLCVSTQLPIHMHGGNGKVAYIDTEGTFRPERIVPIAERFGMDANAVLDNIIYARAYTYEHQYNLLLGLAAKMAEEPFRLLIVDSVIALFRVDFSGRGELAERQQKLAQMLSRLTKIAEEFNVAVYITNQVIADPGGGMFITDPKKPAGGHVLAHAATIRLMLRKGKGEQRVCKIFDAPNLPEGEAVFQVTSGGIMDAKD
4 | binds |  | DMC1B, yeast two-hybrid prey (protein, UniProt Q7GBF7 1-344) MAPSKQYDEGGQLQLMDAERIEEEEECFESIDKLISQGINSGDVKKLQDAGIYTCNGLMMHTKKSLTGIKGLSEAKVDKICEAAEKLLSQGFMTGSDLLIKRKSVVRITTGSQALDELLGGGIETLCITEAFGEFRSGKTQLAHTLCVSTQLPIHMHGGNGKVAYIDTEGTFRPERIVPIAERFGMDANAVLDNIIYARAYTYEHQYNLLLGLAAKMAEEPFRLLIVDSVIALFRVDFSGRGELAERQQKLAQMLSRLTKIAEEFNVAVYITNQVIADPGGGMFITDPKKPAGGHVLAHAATIRLMLRKGKGEQRVCKIFDAPNLPEGEAVFQVTSGGIMDAKD
